{"sequences": {"note": "Protein sequences, listed by entry. Tags and fused reporters are not part of them. Residues count along the entry.", "UniProt Q96EB6, 2-747 limits assumed": "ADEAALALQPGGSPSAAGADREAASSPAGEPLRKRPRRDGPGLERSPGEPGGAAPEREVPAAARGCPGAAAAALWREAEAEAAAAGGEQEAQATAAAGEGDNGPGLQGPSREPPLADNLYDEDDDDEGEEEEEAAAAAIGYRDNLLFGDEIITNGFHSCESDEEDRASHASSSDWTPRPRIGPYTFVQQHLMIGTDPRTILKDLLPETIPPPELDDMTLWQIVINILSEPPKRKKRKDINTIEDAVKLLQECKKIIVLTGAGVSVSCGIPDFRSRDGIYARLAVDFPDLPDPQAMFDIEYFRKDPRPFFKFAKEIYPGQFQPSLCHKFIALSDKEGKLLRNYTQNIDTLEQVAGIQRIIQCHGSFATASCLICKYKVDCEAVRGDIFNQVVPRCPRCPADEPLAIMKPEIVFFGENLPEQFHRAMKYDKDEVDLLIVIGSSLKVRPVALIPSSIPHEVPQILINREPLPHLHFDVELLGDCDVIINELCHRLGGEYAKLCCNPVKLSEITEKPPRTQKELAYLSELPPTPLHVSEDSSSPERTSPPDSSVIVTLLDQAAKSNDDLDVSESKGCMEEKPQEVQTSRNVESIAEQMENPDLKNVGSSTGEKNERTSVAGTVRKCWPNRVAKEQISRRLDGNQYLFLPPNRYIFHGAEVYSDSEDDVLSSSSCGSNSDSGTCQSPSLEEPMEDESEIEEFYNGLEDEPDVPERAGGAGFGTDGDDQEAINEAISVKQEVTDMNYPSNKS"}, "source": "paper PMC6925144", "about": "“A prospective compound screening contest identified broader inhibitors for Sirtuin 1” (Scientific Reports, 2019)", "note": "In all, about 3,200 compounds were measured (“TSA(with NAD+) / Primary screening (TSA) / delta Tm (K)”: median about -0.04, highest 2% from about 0.37 on). Some of the results follow."}
{"biological_target": "NAD-dependent deacetylase Sirtuin 1 (human, UniProt Q96EB6)", "test": "primary screen, delta tm", "parameters": "single well (n = 1, as 'the same TSA')", "conditions": "10 µM", "units": {"TSA(with NAD+) / Primary screening (TSA) / delta Tm (K)": "K"}}
{"compound": "Cc1ccc(-c2cc(NC(=O)CSc3nnc(NCc4ccco4)s3)on2)cc1", "TSA(with NAD+) / Primary screening (TSA) / delta Tm (K)": -0.08}
{"compound": "COc1ccc(C2C(C(=O)c3ccc(C)cc3)=C(O)C(=O)N2CCCN2CCOCC2)cc1", "note": "(stereo not drawn)", "TSA(with NAD+) / Primary screening (TSA) / delta Tm (K)": -0.22}
{"compound": "CCNC(=O)c1cccc(NC(=O)C2CCN(S(=O)(=O)c3cc(C(C)(C)C)ccc3C)CC2)c1", "TSA(with NAD+) / Primary screening (TSA) / delta Tm (K)": 0.16}
{"compound": "COc1ccc(Br)cc1/C=C1/Oc2cc(O)ccc2C1=O", "TSA(with NAD+) / Primary screening (TSA) / delta Tm (K)": 0.16}
{"compound": "O=C1/C(=C\\c2cc3ccccc3nc2N2CCOCC2)Oc2cc(O)ccc21", "TSA(with NAD+) / Primary screening (TSA) / delta Tm (K)": 0.26}
{"compound": "O=C(COC(=O)CN1C(=O)CSc2ccccc21)Nc1ccccc1SCc1ccccc1", "TSA(with NAD+) / Primary screening (TSA) / delta Tm (K)": 0.06}
{"compound": "COCc1c(C(=O)Nc2ccc(N3CCN(Cc4ccccc4)CC3)cc2)oc2ccccc12", "TSA(with NAD+) / Primary screening (TSA) / delta Tm (K)": -0.09}
{"compound": "OCCNc1ncnc2ccsc12", "TSA(with NAD+) / Primary screening (TSA) / delta Tm (K)": 0.01}
{"compound": "COC(=O)c1ccc2[nH]cnc2c1", "TSA(with NAD+) / Primary screening (TSA) / delta Tm (K)": -0.24}
{"compound": "Cc1cn2c3c(=O)[nH]c(=O)n(C)c3nc2n1CCCN1CCc2ccccc2C1", "TSA(with NAD+) / Primary screening (TSA) / delta Tm (K)": -0.28}
{"compound": "COc1cccc(-n2ccnc2SC2CCCCNC2=O)c1", "note": "(stereo not drawn)", "TSA(with NAD+) / Primary screening (TSA) / delta Tm (K)": -0.03}
{"compound": "COc1ccc(C(=O)C2=C(O)C(=O)N(CCCN3CCOCC3)C2c2ccccc2)cc1", "note": "(stereo not drawn)", "TSA(with NAD+) / Primary screening (TSA) / delta Tm (K)": -0.18}
{"compound": "OC1CCN(c2ncnc3ccsc23)CC1", "TSA(with NAD+) / Primary screening (TSA) / delta Tm (K)": -0.05}
{"compound": "CN(c1cccnc1)S(=O)(=O)c1cnc2c(c1)c(=O)[nH]c(=O)n2C", "TSA(with NAD+) / Primary screening (TSA) / delta Tm (K)": -0.12}
{"compound": "CN(c1ccc2ccccc2c1)S(=O)(=O)c1cccc(C#N)c1", "TSA(with NAD+) / Primary screening (TSA) / delta Tm (K)": -0.05}
{"compound": "COc1ccc2cc(/C=C/C(=O)Nc3ccc(C(N)=O)cc3)ccc2c1", "TSA(with NAD+) / Primary screening (TSA) / delta Tm (K)": 0.76}
{"compound": "CN(c1ccccc1)S(=O)(=O)c1cccc(C(=O)OCC(=O)Nc2ccc(C(N)=O)cc2)c1", "TSA(with NAD+) / Primary screening (TSA) / delta Tm (K)": -0.02}
{"compound": "O=C(Cc1c[nH]c2ccccc12)NCc1ccc(-c2ccc(O)cc2)cc1", "TSA(with NAD+) / Primary screening (TSA) / delta Tm (K)": 0.08}
{"compound": "Cc1ccc(NC(=O)CN(C)S(=O)(=O)c2ccc3c(c2)CC(=O)N3C)cc1", "TSA(with NAD+) / Primary screening (TSA) / delta Tm (K)": 0.03}
{"compound": "Cc1sc2ncnc(N3CCC(C(=O)Nc4sc5c(c4C(N)=O)CCC(C)C5)CC3)c2c1C", "note": "(stereo not drawn)", "TSA(with NAD+) / Primary screening (TSA) / delta Tm (K)": 0.16}
{"compound": "c1ccc(-c2nc(-c3cnn(-c4ccccc4)n3)[nH]c2-c2ccccc2)cc1", "TSA(with NAD+) / Primary screening (TSA) / delta Tm (K)": 0.19}
{"compound": "O=C(Nc1ccccc1Cc1ccccc1)c1ccc(CN2C(=O)CNC2=O)cc1", "TSA(with NAD+) / Primary screening (TSA) / delta Tm (K)": 0.05}
{"compound": "O=C(c1ccc[nH]1)N1CCCC1c1ccc2c(c1)OCCCO2", "note": "(stereo not drawn)", "TSA(with NAD+) / Primary screening (TSA) / delta Tm (K)": 0.03}
{"compound": "CCCOc1ccc(C2C(C(=O)c3ccc(OC)cc3)=C(O)C(=O)N2CCCN2CCOCC2)cc1", "note": "(stereo not drawn)", "TSA(with NAD+) / Primary screening (TSA) / delta Tm (K)": -0.01}
